In article PMC3744072:
Results are given in words; binding and its absence hold for the method and conditions named. Some results given as binding are weak or reduced against the parent protein; the word gives no strength.

By UniProt entry, the sequences of proteins in these tests, tags left out. Where a name states a change or a piece, a line headed by the entry shows the natural chain unless it says otherwise. Chains listed by the source or under a name are the forms on record and can include a tag or linker.
COMP DelD469 (mutant, mouse knock-in) (Q9R0G6, form named): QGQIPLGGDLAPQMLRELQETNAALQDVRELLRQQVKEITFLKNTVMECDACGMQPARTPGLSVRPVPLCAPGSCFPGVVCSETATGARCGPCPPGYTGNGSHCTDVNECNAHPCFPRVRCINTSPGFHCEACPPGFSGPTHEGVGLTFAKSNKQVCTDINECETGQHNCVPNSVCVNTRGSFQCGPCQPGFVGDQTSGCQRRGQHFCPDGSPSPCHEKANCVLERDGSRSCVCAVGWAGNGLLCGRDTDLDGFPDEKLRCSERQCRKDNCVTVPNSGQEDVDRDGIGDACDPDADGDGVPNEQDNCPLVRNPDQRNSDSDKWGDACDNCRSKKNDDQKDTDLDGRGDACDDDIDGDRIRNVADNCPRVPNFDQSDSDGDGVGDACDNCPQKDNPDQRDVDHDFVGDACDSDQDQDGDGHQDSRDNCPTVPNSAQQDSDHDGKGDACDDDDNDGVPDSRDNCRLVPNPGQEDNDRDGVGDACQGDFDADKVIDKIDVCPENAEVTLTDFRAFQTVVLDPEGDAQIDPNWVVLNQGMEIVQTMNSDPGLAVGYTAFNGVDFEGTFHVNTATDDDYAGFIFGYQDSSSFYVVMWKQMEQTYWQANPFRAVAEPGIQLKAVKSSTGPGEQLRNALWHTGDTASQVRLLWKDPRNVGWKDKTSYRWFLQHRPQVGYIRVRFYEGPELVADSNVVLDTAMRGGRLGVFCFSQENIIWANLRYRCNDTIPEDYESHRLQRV

Target: COMP DelD469 (mutant, mouse knock-in) (mouse (endogenous in mouse chondrocytes)) (UniProt Q9R0G6)
Experiment: non-reducing SDS-PAGE and Western blot; total protein lysates of isolated chondrocytes of 5-day-old mice, 4-12% gels, non-reduced against reduced (0.1 M DTT); oligomers assigned by apparent size

COMP DelD469 (mutant, mouse knock-in) (from UniProt Q9R0G6 20-755)
binding: binds
